## Library screen at single concentrations

Amino acid sequences for entries named in this document (tags omitted). Residues count along the entry.
UniProt P9WPC5, whole entry: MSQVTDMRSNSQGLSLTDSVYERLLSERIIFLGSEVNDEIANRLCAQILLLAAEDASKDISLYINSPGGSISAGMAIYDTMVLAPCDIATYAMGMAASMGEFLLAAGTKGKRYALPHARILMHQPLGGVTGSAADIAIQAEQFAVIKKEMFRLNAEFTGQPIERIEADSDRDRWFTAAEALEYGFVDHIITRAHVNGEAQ
UniProt P9WPC3, whole entry partner: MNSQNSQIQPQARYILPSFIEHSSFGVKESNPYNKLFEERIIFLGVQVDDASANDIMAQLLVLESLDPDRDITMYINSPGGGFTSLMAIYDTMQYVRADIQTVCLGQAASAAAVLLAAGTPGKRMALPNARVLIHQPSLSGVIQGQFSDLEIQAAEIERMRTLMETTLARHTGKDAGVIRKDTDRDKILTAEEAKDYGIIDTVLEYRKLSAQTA
UniProt Q4DA54, 1-478: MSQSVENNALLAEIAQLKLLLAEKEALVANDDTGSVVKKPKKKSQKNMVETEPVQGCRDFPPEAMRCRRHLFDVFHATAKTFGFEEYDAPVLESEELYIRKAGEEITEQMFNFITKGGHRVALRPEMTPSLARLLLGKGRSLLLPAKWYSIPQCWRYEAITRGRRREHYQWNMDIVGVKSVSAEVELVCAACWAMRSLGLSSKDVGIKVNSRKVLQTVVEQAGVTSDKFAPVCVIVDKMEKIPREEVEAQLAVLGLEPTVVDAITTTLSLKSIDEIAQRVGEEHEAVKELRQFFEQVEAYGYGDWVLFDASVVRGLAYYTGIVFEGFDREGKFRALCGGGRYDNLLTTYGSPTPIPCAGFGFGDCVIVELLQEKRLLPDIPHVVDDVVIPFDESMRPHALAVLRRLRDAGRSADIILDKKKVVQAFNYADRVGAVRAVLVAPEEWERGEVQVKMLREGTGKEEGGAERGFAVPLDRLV
UniProt Q8IDJ8, 1-583: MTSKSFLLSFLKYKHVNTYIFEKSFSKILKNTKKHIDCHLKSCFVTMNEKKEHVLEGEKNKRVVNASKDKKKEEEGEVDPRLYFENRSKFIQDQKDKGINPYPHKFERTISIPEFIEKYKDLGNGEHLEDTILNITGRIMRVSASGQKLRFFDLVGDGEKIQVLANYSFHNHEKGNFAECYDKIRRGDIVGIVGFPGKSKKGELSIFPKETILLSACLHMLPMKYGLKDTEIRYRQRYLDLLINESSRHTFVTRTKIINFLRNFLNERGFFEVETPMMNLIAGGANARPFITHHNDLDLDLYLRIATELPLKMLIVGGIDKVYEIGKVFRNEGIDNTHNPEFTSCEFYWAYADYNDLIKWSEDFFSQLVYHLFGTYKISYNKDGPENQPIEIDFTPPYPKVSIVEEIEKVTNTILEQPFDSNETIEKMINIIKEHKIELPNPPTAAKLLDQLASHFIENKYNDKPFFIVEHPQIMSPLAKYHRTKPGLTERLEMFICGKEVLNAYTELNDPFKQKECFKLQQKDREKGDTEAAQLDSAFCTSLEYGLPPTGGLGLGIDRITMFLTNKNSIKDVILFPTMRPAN
UniProt I6X8D2, whole entry: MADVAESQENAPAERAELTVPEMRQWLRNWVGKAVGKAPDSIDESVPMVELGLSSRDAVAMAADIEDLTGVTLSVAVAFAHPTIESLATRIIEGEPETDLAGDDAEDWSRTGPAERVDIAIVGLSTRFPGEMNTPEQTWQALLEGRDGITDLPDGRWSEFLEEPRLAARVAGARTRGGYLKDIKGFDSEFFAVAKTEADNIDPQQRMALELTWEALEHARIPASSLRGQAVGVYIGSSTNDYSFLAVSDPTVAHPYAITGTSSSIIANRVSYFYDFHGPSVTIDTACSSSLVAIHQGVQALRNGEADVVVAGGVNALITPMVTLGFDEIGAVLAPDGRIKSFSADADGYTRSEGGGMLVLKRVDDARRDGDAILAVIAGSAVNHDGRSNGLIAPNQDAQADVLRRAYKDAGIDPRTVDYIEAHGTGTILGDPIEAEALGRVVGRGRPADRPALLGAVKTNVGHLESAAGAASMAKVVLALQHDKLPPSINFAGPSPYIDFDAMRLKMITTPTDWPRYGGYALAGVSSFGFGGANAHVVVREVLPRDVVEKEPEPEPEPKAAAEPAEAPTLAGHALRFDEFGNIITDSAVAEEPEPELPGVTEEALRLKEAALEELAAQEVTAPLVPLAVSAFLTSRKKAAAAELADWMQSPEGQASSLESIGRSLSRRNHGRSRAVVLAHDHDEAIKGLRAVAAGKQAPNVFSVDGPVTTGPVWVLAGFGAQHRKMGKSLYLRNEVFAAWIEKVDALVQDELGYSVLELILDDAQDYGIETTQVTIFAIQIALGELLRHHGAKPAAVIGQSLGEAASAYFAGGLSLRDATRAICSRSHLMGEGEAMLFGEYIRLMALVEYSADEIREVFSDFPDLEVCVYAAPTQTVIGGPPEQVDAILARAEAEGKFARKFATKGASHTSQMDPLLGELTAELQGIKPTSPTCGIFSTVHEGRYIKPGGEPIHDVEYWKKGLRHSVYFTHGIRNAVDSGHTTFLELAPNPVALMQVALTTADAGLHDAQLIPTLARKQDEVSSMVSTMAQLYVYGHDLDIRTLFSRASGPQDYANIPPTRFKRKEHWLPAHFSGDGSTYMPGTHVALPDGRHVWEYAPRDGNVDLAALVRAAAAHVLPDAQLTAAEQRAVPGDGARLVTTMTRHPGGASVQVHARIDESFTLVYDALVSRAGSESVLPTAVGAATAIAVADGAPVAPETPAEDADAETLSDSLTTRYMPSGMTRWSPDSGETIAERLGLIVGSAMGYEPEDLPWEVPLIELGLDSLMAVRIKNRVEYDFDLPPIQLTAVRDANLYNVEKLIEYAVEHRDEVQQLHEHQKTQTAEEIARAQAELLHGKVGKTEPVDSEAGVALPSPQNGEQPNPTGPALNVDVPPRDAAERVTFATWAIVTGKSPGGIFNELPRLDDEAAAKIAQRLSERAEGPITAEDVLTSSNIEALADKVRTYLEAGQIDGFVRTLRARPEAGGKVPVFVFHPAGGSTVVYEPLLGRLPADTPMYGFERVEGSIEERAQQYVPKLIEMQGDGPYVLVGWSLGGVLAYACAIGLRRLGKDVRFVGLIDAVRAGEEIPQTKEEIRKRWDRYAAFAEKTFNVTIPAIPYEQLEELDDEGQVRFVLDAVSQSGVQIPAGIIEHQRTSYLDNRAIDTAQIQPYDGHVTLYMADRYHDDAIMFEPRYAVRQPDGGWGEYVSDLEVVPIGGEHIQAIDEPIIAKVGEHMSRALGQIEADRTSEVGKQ

The values are deposited in ChEMBL (CHEMBL3988442, “University of Dundee, Small-Polar-MMV Screening Library” (2021)).

ClpP1P2: 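ClpP1P2, Mycobacterium tuberculosis (UniProt P9WPC5 and UniProt P9WPC3). Protease assay of ClpP1P2, read by the AMC dye that it sets free. Concentration: 50 µM. Higher reads as stronger inhibition, judged from the few compounds that gave an IC50. Most other retested compounds had strongly negative values. Of about 69,000 compounds tested this way, about 10 (0.015%) reached 50% or more in at least one test.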
TcHisRS: 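Histidine-tRNA ligase, Trypanosoma cruzi CL Brener (UniProt Q4DA54). Enzyme assay of histidyl-tRNA synthetase; the read-out is not stated. Tested at 30 µM. Higher reads as stronger inhibition (inferred: compounds with an IC50 in retests scored well above the rest). Size under these conditions: about 69,000 compounds, about 31 of them at 50% or above in at least one test.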
PfKRS1: 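Lysine-tRNA ligase, Plasmodium falciparum 3D7 (UniProt Q8IDJ8). Enzyme assay of the cytosolic lysyl-tRNA synthetase in 384-well plates, read by luminescence. Concentration: 30 µM. Higher reads as stronger inhibition, judged from the few compounds that gave an IC50. Of about 69,000 compounds tested this way, about 49 (0.071%) reached 50% or more in at least one test.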
Pks13 thioesterase: 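Polyketide synthase Pks13, Mycobacterium tuberculosis (UniProt I6X8D2). Enzyme assay of the thioesterase domain of polyketide synthase 13; the read-out is not stated. Compounds at 30 µM. Higher reads as stronger inhibition (inferred from which compounds were picked for retests). About 67,000 compounds were tested under these conditions; 0.46% (about 300) showed 50% or more at least once.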

The filed quantity is “Percent Effect” (%).
How 0% and 100% were set is not recorded. Most values in the screen are low, and negative values occur.
Compounds were drawn at random from those tested, without regard to their results.
A dash means the value is not listed here; it may have been measured.

compound,ClpP1P2,TcHisRS,PfKRS1,Pks13 thioesterase
Cc1cc(C)n(-c2ccc3nnc(C)n3n2)n1,30.59,-2.062,-3.795,-8.522
CCc1cc(NC(=O)C2CCCN(C(=O)NCC(C)C)C2)[nH]n1 (centres unmarked),5.154,9,3.259,-
C=C(C)COc1cccc(CNC(CC)c2ccnn2C)c1 (centres unmarked),-7.958,4.523,5.92,0.1046
Cc1ccoc1C(=O)N1CCn2nnc(COc3cccnc3)c2C1,7.451,4.202,6.626,-0.6005
Cn1ncnc1NS(=O)(=O)c1ccc(F)cc1Cl,0.8156,6.122,0.06961,-23.53
CC1(C)CNC(=O)c2nc(-c3n[nH]c(=O)[nH]3)[nH]c2C1,2.316,10.31,1.652,-21.69
CC(=O)N1Cc2ccccc2C[C@H]1C(=O)Nc1ccccn1,2.506,7.792,8.498,-32.78
Cc1ccc(N2CC[C@@H]3[C@@H](CO[C@H]3CNC(=O)c3ccco3)C2)nn1,12.94,4.598,5.019,-21.86
COCC(=O)N1CCC(=O)N(C2CCCC2)Cc2ccccc21,5.925,-1.124,2.595,-9.773
COc1nn(C)c2c1CCCN(C(=O)c1cscn1)C2,-1.688,-37.04,2.683,-13.11
Fc1cccc(-c2nnn3c2COCC(CNCc2nccs2)C3)c1 (centres unmarked),-5.23,2.062,6.31,-15.43
CC(C)N1c2sc(-c3ccsc3)nc2CC1C(=O)NC1CCCC1 (centres unmarked),-4.131,3.448,3.006,-1.888
CN1C[C@@H](NC(=O)C2CC2)C[C@H]1c1nc(-c2cnccn2)no1,-17,2.488,3.591,-2.267
Nc1ccncc1-n1cc(CCO)cn1,0.1271,8.8,2.649,-5.942
Cn1cccc1C(=O)N1CCCC1c1ccc(CN2CCOCC2)cn1 (centres unmarked),-2.931,5.747,0.1708,1.826
CN(C)Cc1cn(CC2CCCN(c3nccc4occc34)C2)nn1 (centres unmarked),-5.041,5.882,-2.069,-22.74
CSCC(=O)N1CCCN(Cc2cscn2)CC1,-21.35,2.941,2.228,-22.38
CCCn1nc(C(=O)N2CCCC2c2noc(C)n2)ccc1=O (centres unmarked),9.658,0,2.363,-2.945
Cn1cc(CCN2CCOC(CNc3cccnn3)C2)cn1 (centres unmarked),17.9,-5.143,1.909,6.368
CN1CCN(c2ccccc2NC(=O)NCCc2ccc(O)cc2)CC1,-16.86,4.741,3.937,-49.96
CN(C)C(=O)COC[C@@H]1CC[C@H]2[C@H](CCN2c2ncccn2)O1,9.739,-3.067,3.208,-0.5958
Cn1nc(CC(C)(C)C)cc1NC(=O)c1ccc(CNC(N)=O)cc1,11.36,6.494,6.982,-18.49
COC[C@@H]1CCC[C@@]12CN(C(=O)N(C)C)CCO2,-3.125,1.508,0.5491,-5.961
Cc1nn(C2CCS(=O)(=O)C2)c(O)c1Cc1cccc(Cl)c1 (centres unmarked),-1.228,1.754,0.4607,-40.46
Cc1cc(NC(=O)CN2CCCC2c2noc(C3CC3)n2)no1 (centres unmarked),-4.228,2.479,-0.5216,-6.757
Cc1ccc(NC(C)(C)c2nnnn2-c2ccc(Cl)cc2)c(C)c1,-22.49,7.018,2.23,43.18
Cc1ccc2nc(CN(C)Cc3[nH]nc4c3CCC4)[nH]c2c1C,3.946,4.255,0.889,39.09
COc1ccc(C(=O)N2CCN(C(=O)CCCc3cn[nH]c3)CC2)cc1,-4.448,2.381,3.536,4.011
CC(C)C1CN(c2cnccn2)CCC(=O)N1Cc1ccc(F)cc1 (centres unmarked),-33.39,-2.97,1.323,48.34
CCN(C(=O)COc1nc(Cc2ccc(F)cc2)no1)C1CC1,-8.393,4.972,-1.737,-39.09
Cc1nc(CN(C)C2CCN(CC3CCC3)C2)no1 (centres unmarked),-17.53,4.046,0.1553,-
CC1c2cccn2CCN1C(=O)CCCc1nc(-c2ccco2)no1 (centres unmarked),-2.762,0.5181,8.259,1.464
Cc1nn(C)c2cnn(Cc3ccc(C(=O)NC4CC4)o3)c12,1.296,1.327,2.161,-21.65
O=C(Nc1ccc2ncsc2c1)N1CCCN([C@H]2COC[C@@H]2O)CC1,-3.613,7.514,6.293,-4.273
CCn1ncc(S(=O)(=O)NC(C)c2cc(OC)ccc2OC)c1C (centres unmarked),-12.68,3.093,-1.326,-11.25
CCC(CNC(=O)Cc1c(C)noc1C)N1CCCC1 (centres unmarked),0.6174,9.827,4.349,-5.751
Cc1cc(C(=O)N2CCC3(CC2)CN(CCN(C)C)C(=O)O3)nc(C)n1,-0.3555,-3.191,5.823,-29.94
Cc1nnc([C@H]2CC[C@@H]3[C@@H](CCN3Cc3c(C)noc3C)O2)o1,-3.612,0.5405,6.455,-7.832
CC(=O)N(Cc1noc(C2CC2)n1)C1CCN(Cc2cc(C)on2)C1 (centres unmarked),-34.46,2.89,0.6551,-8.558
O=C(CCn1cncn1)NCC(c1ccco1)N1CCCC1 (centres unmarked),-48.43,6.122,-1.084,-17.09
Cc1nn(C)c(Cl)c1C1CCCN1C(=O)c1nccnc1N (centres unmarked),7.657,3.759,3.323,-0.5469
Cc1cc(NC(=O)N2CCOCC2)nn1-c1ccccc1Cl,-11.7,4.167,2.595,-4.958
CC(=O)N[C@@H]1C[C@H](Cc2ccccc2)O[C@H](c2ccc(C(=O)O)cc2)C1,-1.24,-1.117,0.4894,-23.18
O=C(NC1CC1)[C@@H]1C[C@@H]2CCN(Cc3ccccc3)C[C@@H]2O1,-2.202,-2.041,-3.521,-36.26
Cc1nn(C(C)C)c(C)c1S(=O)(=O)Nc1cccc(C(=O)O)c1,5.45,6.494,2.784,-45.99
Cc1cc(C)c2c(N3CCN(Cc4ncccc4C)CC3)ncnc2n1,-19.38,10.1,5.005,12.81
Cc1cccc(C)c1OCCCN1CCC(n2cncn2)CC1,-10.37,4,-1.297,3.212
Cc1nn(C)c(Cl)c1C1CCCN1C(=O)c1ccc2c(c1)OCO2 (centres unmarked),-3.157,3.008,4.937,-5.312
Cc1cc(C)c2cc(CNCCCN3CCOCC3)c(=O)[nH]c2c1,2.113,6.383,2.513,31.92
CNC(=O)COc1ccccc1CNC1CCc2nc(C)nn2C1 (centres unmarked),0.1481,5.051,5.253,-31.88
CCc1nc(CN2CCCC(N(C)Cc3cnn(C)c3)C2)no1 (centres unmarked),-8.31,0,0.2666,-
CCC(NC(=O)Nc1cc(F)c(OC)c(F)c1)c1noc(C)n1 (centres unmarked),-2.053,2.597,1.892,-32.2
N#Cc1c(F)cccc1NCCCOCC1CCOC1 (centres unmarked),-3.638,3.743,2.792,-23.13
c1ccc(CCN2CCCC(c3noc(C4CC4)n3)C2)cc1 (centres unmarked),9.838,6.186,3.668,-1.785
CC(Cc1ccccc1F)C(=O)Nc1cccc(OCC(N)=O)c1 (centres unmarked),-15.47,7.182,4.054,-28.93
Cn1ncc(NC(=O)Cn2cc(-c3ccc(F)cn3)cn2)n1,-14.16,2.381,-0.4963,-10.66
CN(C)CCNc1cc(-c2ncccn2)c2cc[nH]c2n1,-0.02151,8.511,0.3453,-10.97
Cc1ccc(CN2CCCC(c3cnccn3)C2)s1 (centres unmarked),-1.457,11.36,-0.8394,4.25
Cc1ncncc1C(=O)N1CCOC(C(=O)NC2CCCC2)C1 (centres unmarked),-6.706,7.752,-0.9871,14.05

The first 3 entries again:

{"compound": "Cc1cc(C)n(-c2ccc3nnc(C)n3n2)n1", "ClpP1P2": 30.59, "TcHisRS": -2.062, "PfKRS1": -3.795, "Pks13 thioesterase": -8.522}
{"compound": "CCc1cc(NC(=O)C2CCCN(C(=O)NCC(C)C)C2)[nH]n1", "stereo": "centres unmarked", "ClpP1P2": 5.154, "TcHisRS": 9, "PfKRS1": 3.259}
{"compound": "C=C(C)COc1cccc(CNC(CC)c2ccnn2C)c1", "stereo": "centres unmarked", "ClpP1P2": -7.958, "TcHisRS": 4.523, "PfKRS1": 5.92, "Pks13 thioesterase": 0.1046}